# Measured values from paper PMC8355244, “A fragment-based approach identifies an allosteric pocket that impacts malate dehydrogenase activity” (Communications Biology, 2021).
# The chains behind the UniProt entries cited, without tags or fusion partners.
# UniProt Q6VVP7, entry or part of it: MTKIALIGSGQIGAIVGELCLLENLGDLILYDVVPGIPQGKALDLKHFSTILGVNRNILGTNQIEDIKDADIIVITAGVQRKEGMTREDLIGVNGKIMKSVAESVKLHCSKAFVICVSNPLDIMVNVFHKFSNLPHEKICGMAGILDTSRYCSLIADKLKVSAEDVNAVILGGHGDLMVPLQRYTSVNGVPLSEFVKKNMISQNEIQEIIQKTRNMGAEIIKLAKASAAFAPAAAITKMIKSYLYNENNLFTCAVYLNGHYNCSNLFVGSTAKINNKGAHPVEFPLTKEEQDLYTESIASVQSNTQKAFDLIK
# Where “and” joins values, the source holds several entries; their conditions need not be identical. Equal values may be shown once. Further values from the same series stand in other lists.
# Target: T1, PfMDH (Plasmodium falciparum, UniProt Q6VVP7)
# T1 construct: The full-length WT PfMDH gene was cloned into pETM-13; made in house; host or cells: E. coli Rosetta 2 (DE3) pLysS
# Test: Thermal shift assay (TSA)
# Type: binding
# Conditions: for TSA melting curve raw signal: triplicate columns; for TSA melting curve raw fluorescence signal: three replicate columns
# Method in brief: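 10 μM PfMDH with 1 mM compound in 100 mM Na–phosphate pH 7.4, 400 mM NaCl, 10× Sypro Orange; 1% DMSO controls. Melting inflection points taken as Tm; shifts >1 °C read as stabilization, negative shifts as destabilization.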
compound,measurement,setting,value
Cc1ccc(-c2csc(N)n2)cc1C [compound 5a],TSA melting curve raw signal,Temperature 25.5,"4109,14754690857 and 4335,81485549876 and 4113,56049603613"
same,TSA melting curve raw signal,Temperature 26,"4091,79242828967 and 4310,40279474088 and 4090,64619129944"
same,TSA melting curve raw signal,Temperature 26.5,"4074,43730967076 and 4284,99073398301 and 4067,73188656275"
same,TSA melting curve raw signal,Temperature 27,"4057,08219105186 and 4259,57867322513 and 4044,81758182606"
same,TSA melting curve raw signal,Temperature 27.5,"4039,72707243295 and 4234,16661246725 and 4021,90327708934"
same,TSA melting curve raw signal,Temperature 28,"4022,37195381405 and 4208,75455170937 and 3998,98897235265"
same,TSA melting curve raw signal,Temperature 44.5,"4239,15172605318"
same,TSA melting curve raw signal,Temperature 45,"4248,82252980672 and 4180,40707517298 and 4295,19781633361"
same,TSA melting curve raw signal,Temperature 45.5,"4308,80692955209 and 4227,02885004101 and 4355,47285891724"
same,TSA melting curve raw signal,Temperature 46,"4373,25216543506 and 4280,01131774685 and 4419,52494140658"
same,TSA melting curve raw signal,Temperature 46.5,"4441,98779089746 and 4338,90054761303 and 4487,12433006209"
same,TSA melting curve raw signal,Temperature 47,"4514,88248655477 and 4404,26532914514 and 4557,96924061725"
same,TSA melting curve raw signal,Temperature 47.5,"4592,04281656696 and 4476,38641299924 and 4632,39297094883"
same,TSA melting curve raw signal,Temperature 48,"4673,74526635183 and 4556,17632878294 and 4710,74582268116"
same,TSA melting curve raw signal,Temperature 48.5,"4760,34240410445 and 4643,13048449794 and 4793,65108888582"
same,TSA melting curve raw signal,Temperature 49,"4852,47499025856 and 4738,40725357913 and 4881,50819903385"
same,TSA melting curve raw signal,Temperature 49.5,"4949,59404810981 and 4841,46234366862 and 4974,90738971605"
same,TSA melting curve raw signal,Temperature 50,"5051,4667385107 and 4952,07808585402 and 5073,48548608683"
same,TSA melting curve raw signal,Temperature 50.5,"5157,4226483497 and 5069,46914536839 and 5177,48404858169"
same,TSA melting curve raw signal,Temperature 51,"5267,95599531649 and 5194,20283492665 and 5287,15827915382"
same,TSA melting curve raw signal,Temperature 51.5,"5383,16904896146 and 5325,43240682749 and 5402,89251949692"
same,TSA melting curve raw signal,Temperature 52,"5503,69155236101 and 5463,09196162394 and 5524,23646357663"
same,TSA melting curve raw signal,Temperature 52.5,"5629,82572060057 and 5606,91542964419 and 5651,56517768753"
same,TSA melting curve raw signal,Temperature 53,"5762,201846172 and 5756,51514590588 and 5784,33818752418"
same,TSA melting curve raw signal,Temperature 53.5,"5899,78683243396 and 5910,27380542886 and 5921,38100586449"
same,TSA melting curve raw signal,Temperature 54,"6041,25099411936 and 6066,34642139633 and 6060,49486687824"
same,TSA melting curve raw signal,Temperature 54.5,"6185,41764751827 and 6222,50846973011 and 6199,89319894017"
same,TSA melting curve raw signal,Temperature 55,"6330,08312180185 and 6375,48389931662 and 6336,48762736286"
same,TSA melting curve raw signal,Temperature 55.5,"6472,46690724421 and 6522,36737313559 and 6467,16260655791"
same,TSA melting curve raw signal,Temperature 56,"6610,271830967 and 6659,9986451875 and 6588,92984546"
same,TSA melting curve raw signal,Temperature 56.5,"6739,94944120666 and 6785,12951511817 and 6699,01024230288"
same,TSA melting curve raw signal,Temperature 57,"6858,27947960354 and 6895,60286641402 and 6794,93317175531"
same,TSA melting curve raw signal,Temperature 57.5,"6962,55440112448 and 6989,60698728704 and 6874,9747655596"
same,TSA melting curve raw signal,Temperature 58,"7050,25600441948 and 7064,90744842307 and 6937,99061566162"
same,TSA melting curve raw signal,Temperature 58.5,"7119,54329827173 and 7120,86859609527 and 6982,99248409316"
same,TSA melting curve raw signal,Temperature 59,"7170,33809283212 and 7157,9912435777 and 7010,83858966031"
same,TSA melting curve raw signal,Temperature 59.5,"7202,92909998078 and 7176,88734940722 and 7022,8587428136"
same,TSA melting curve raw signal,Temperature 60,"7218,69413040578 and 7179,54376622874 and 7020,95225978527"
same,TSA melting curve raw signal,Temperature 60.5,"7219,72213438909 and 7168,99371274419 and 7007,11890541707"
same,TSA melting curve raw signal,Temperature 61,"7208,44281237741 and 7148,35081015465 and 6984,79246706028"
same,TSA melting curve raw signal,Temperature 61.5,"7187,79628678274 and 7120,34808508335 and 6956,11439175697"
same,TSA melting curve raw signal,Temperature 62,"7160,29045584435 and 7087,36786186386 and 6923,04719846659"
same,TSA melting curve raw signal,Temperature 62.5,"7128,22017974425 and 7051,28787216107 and 6887,19176719123"
same,TSA melting curve raw signal,Temperature 63,"7093,57296273517 and 7013,65607738955 and 6850,25753359803"
same,TSA melting curve raw signal,Temperature 63.5,"7057,43122835243 and 6974,72372382632 and 6812,56687018174"
same,TSA melting curve raw signal,Temperature 64,"7020,60869116906 and 6935,2842454111 and 6774,70360365512"
same,TSA melting curve raw signal,Temperature 64.5,"6983,30737703911 and 6895,64922967323 and 6736,6283110517"
same,TSA melting curve raw signal,Temperature 65,"6945,45514823899 and 6856,04765049736 and 6698,92336210102"
same,TSA melting curve raw fluorescence signal,Temperature 65.5,"6816,06984399857 and 6661,12750154168"
same,TSA melting curve raw fluorescence signal,Temperature 66,"6868,79196614962 and 6776,54537079108 and 6623,30427835847"
same,TSA melting curve raw fluorescence signal,Temperature 66.5,"6829,57456616634 and 6737,13807260659 and 6585,71071228662"
same,TSA melting curve raw fluorescence signal,Temperature 67,"6790,29048516787 and 6698,28027972071 and 6548,78708460424"
same,TSA melting curve raw fluorescence signal,Temperature 67.5,"6751,30464360266 and 6659,66329633009 and 6511,88081925756"
same,TSA melting curve raw fluorescence signal,Temperature 68,"6712,27098942751 and 6621,767765955 and 6475,83035297636"
same,TSA melting curve raw fluorescence signal,Temperature 68.5,"6673,46528290982 and 6584,10053839723 and 6440,70138625582"
same,TSA melting curve raw fluorescence signal,Temperature 69,"6635,23579718127 and 6546,77549517268 and 6405,96257303639"
same,TSA melting curve raw fluorescence signal,Temperature 69.5,"6597,30330249868 and 6509,33805652254 and 6371,51342609928"
same,TSA melting curve raw fluorescence signal,Temperature 70,"6559,32794712733 and 6472,50217794297 and 6337,81620267592"
same,TSA melting curve raw fluorescence signal,Temperature 70.5,"6521,67229147987 and 6436,14986442836 and 6304,20880884812"
same,TSA melting curve raw fluorescence signal,Temperature 71,"6483,95403711455 and 6400,42407943148 and 6270,69796640814"
same,TSA melting curve raw fluorescence signal,Temperature 71.5,"6446,55299781899 and 6365,39020540932 and 6237,53529497521"
same,TSA melting curve raw fluorescence signal,Temperature 72,"6409,34859672489 and 6331,29679912675 and 6204,8186165163"
same,TSA melting curve raw fluorescence signal,Temperature 72.5,"6372,53853390467 and 6297,73614072767 and 6172,34644540474"
same,TSA melting curve raw fluorescence signal,Temperature 73,"6335,87674187408 and 6264,55367580359 and 6140,54484959049"
same,TSA melting curve raw fluorescence signal,Temperature 90,"5354,08687671595 and 5219,8663595288"
same,TSA melting curve raw fluorescence signal,Temperature 90.5,"5159,98197137264 and 5327,26814051591 and 5190,56997061565"
same,TSA melting curve raw fluorescence signal,Temperature 91,"5132,43123959746 and 5300,68513038893 and 5161,66890205614"
same,TSA melting curve raw fluorescence signal,Temperature 91.5,"5105,47048570762 and 5274,15780377201 and 5133,05062357503"
same,TSA melting curve raw fluorescence signal,Temperature 92,"5078,52506904552 and 5247,79827791617 and 5104,63584753507"
same,TSA melting curve raw fluorescence signal,Temperature 92.5,"5050,85810590228 and 5221,48414086959 and 5075,55768207688"
same,TSA melting curve raw fluorescence signal,Temperature 93,"5023,31389091435 and 5194,70816789367 and 5046,189529136"
same,TSA melting curve raw fluorescence signal,Temperature 93.5,"4995,49712748815 and 5167,80306736994 and 5016,38286515834"
same,TSA melting curve raw fluorescence signal,Temperature 94,"4967,45404082663 and 5140,38714632172 and 4986,56787422172"
same,TSA melting curve raw fluorescence signal,Temperature 94.5,"4939,51140926284 and 5112,90610420524 and 4956,49952228776"
same,TSA melting curve raw fluorescence signal,Temperature 95,"4911,46428466902 and 5084,16940925847 and 4927,08676586038"
